The results in this text go back to article PMC10819704, “Regulatory Role of GgaR (YegW) for Glycogen Accumulation in Escherichia coli K-12” (Microorganisms, 2024).

Negatives hold for the conditions tested. Where a protein sequence is shown, tags need not be part of it. The exact form of at least one protein or probe is not confirmed. A weaker result is weaker than the reference pair of the same experiment.

This series addresses T1, GgaR (YegW) (Escherichia coli K-12 W3110) (UniProt P0ACM5).
T1 sequence (looked up): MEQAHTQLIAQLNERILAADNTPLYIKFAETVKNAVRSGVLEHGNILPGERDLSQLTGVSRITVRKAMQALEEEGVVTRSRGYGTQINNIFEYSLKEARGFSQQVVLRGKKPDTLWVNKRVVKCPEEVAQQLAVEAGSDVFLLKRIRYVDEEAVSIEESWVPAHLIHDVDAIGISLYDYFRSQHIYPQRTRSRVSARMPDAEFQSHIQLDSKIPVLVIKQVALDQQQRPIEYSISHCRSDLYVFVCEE
The series can be described thus: EMSA. To be noted: 0.5 pmol probe, EMSA: binding buffer composition and pH not given, 37 C, 30 min (+30 min with effector), 5% PAGE, recombinant protein, probe letters rebuilt from the primers and the genome. (In general: A gel shift assay detects complexes by their altered migration in electrophoresis.)

Setting [1] is: 5 or 10 pmol GgaR, GelRed stain, residues 1-248, protein details: His tag implied by pET21a(+) NdeI/NotI and Ni-NTA.

Regarding “CAAATGAAGCTCCGGCAGAGTGCTCAACGCCCTGGTCAACCGGCAGAATAGAAAGATATCCTGTGCCAGCCAGACGCCCGGTGTTGTACAACGTCTGCATATTACGTAACACCGCTGGCGGGCGATTATTGTCAATCATTACGCGGTCTACGTAGTCATGTCCGGGGAGATAAAGCTGGTCAGAAGGAATTGTCATACAACGGTGCTGTAAAAGGTTGTCGGCGTCTTTGCCAAGCAACTGCGCAATATCTGTCATTACTATGCTCCCGTAAATTCCGATTGGATATCGGCTATGGATTGTCCTGGCCCGCCTTTTGCGGGCAATCATAATCCTGGTCGTTACGGGCGAGTTTTTCCATCTTTTGGATGTTTTTTCAGCGTTTTCTGTTGGCTCGATTCATCAGAAAAAATGTTAGCGCGGTCAAGTTTTCACCGCAAAGGTATTTAAAAGGTATTATTAAGTGGTATTGTCATCGCGTACCTTACATTACCTGTCATG (double strand) [fbaB/yegT spacer probe]”, the binding result is, setting by setting: (0.25-3 pmol GgaR, GelRed …, residues 1-248, protein details: His tag implied by pET21a(+) NdeI/NotI and Ni-NTA) “binds”; (ADP 10-100 uM, 2.0 pmol GgaR, no interference, GelRed stain, residues 1-248, protein details: His tag implied by pET21a(+) NdeI/NotI and Ni-NTA) “binds”; (ADPG 10-100 uM, 2.0 pmol GgaR, complex reduced, GelRed stain, residues 1-248, protein details: His tag implied by pET21a(+) NdeI/NotI and Ni-NTA) “binds more weakly”; (glucose 10-100 uM, 2.0 pmol GgaR, no interference, GelRed stain, residues 1-248, protein details: His tag implied by pET21a(+) NdeI/NotI and Ni-NTA) “binds”.
For “CCAACTTCGGTCAGATAACCGTTGGCAAAGATGTAATAGAACGCTAGTGGCATCGCAAACAGGAATGAACAGAAGAAAAAGACGAGGAAGTTTTTATCGCGCAGCAGGATCAGCGCATCCAGGCCGAGCATGACTTTAATATCCATTTTGCCGGTGCTTTTTGGTGGCGTGTCGGGCAGGAAAAACGCAAACACACCGAGCAGAGCAGAACTTCCGGCGGTAATCAGCAGCGGGATGTTAGTCGGTGAGATATCGGCATACCCCAGTATTTGCGGCAAGAAACCACATGCCAGACCGGAGGCAATCCAGCCGATAGTGCCCATCACACGAATGCGCGGGAAATCACGCTCAACATCCGGCACGTTGGCAAAAGCGATGCTGTTAGTCAGCGCAATGGTCGGCATATAGGTTAGCGAGTAGGCCAGCAGTAACGGGAAGAACCCGGCAAAAGTGGTCTGTTGCGCAGCGAAATACATCAGCAGCGCGCCTGCGAACATCAATACCGCCAGCACTTTTTGCGCCGAGAAAAAGCGGTCAGTGAT (double strand) [probe-4]”, under setting [1], the binding result is recorded as “no binding”.
With “GGCATATAGGTTAGCGAGTAGGCCAGCAGTAACGGGAAGAACCCGGCAAAAGTGGTCTGTTGCGCAGCGAAATACATCAGCAGCGCGCCTGCGAACATCAATACCGCCAGCACTTTTTGCGCCGAGAAAAAGCGGTCAGTGATGGAGCCAACCAGAATTGGCGACAGGATCGCCGCAATGGCGGTACAGGCATACGACCAGCCAATTTCTCCGGCACTAAAACCGCTTTTACTTAACCACAACCACAATGGCACAAACCACGCGCCCCAGATAAACCATTCAACAAACATCATGAACGACAGCTTTGCTGTTGTTTTCATCTTTTAATTCCTTCATGACAG (double strand) [probe-3]”, under setting [1], the binding result is given as “no binding”.
The same measure, in the same setting: as for “TCATTTAACTTCCCCTTGTGTCAACGCAATATCGCGATCATCGACCTTGATAGCCGTAATTTCGTTGTCGGATTCGCGGAAAAAAATCATGAACAGCACGGCGATAATGGCAATCATCACCGCGCCGAAAGTCCACATCCCGGACCAGTTGAAAGTCAGTCCGTTTACCGGTTCCTGATAAGCGAACATCTTTTCCATCATCACACCGCCAAGACGATAGCCGAGCAAACTGCCGAAGCCCTGGCAGCAGAGCGTGATCAGCCCCTGCGCAGCGGTACGCATATGCACGGGGGCTTTTTTATCGACATAGATGTAAGCGGTAACGTAGTAAAAATCGTAACTTACGCCGTGAAGCAAAATACCGAGGAACAGTAACGCGTAGGTGAAATATTCATCCGCACTACCGTAAATAAAGAAGCCATAGCGGATCGCAGCGGTGACCAGACCAAGCAATAATACCTT (double strand) [probe-6]”, the entry is “no binding”.
